Values from PubChem BioAssay AID1671195 (Yale University, 2021)

Aim: 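Genes whose knockdown alters LDL uptake in liver cancer cells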 (primary screen)
System: human Huh7 hepatoma cells
Knock-down reagent: siRNA pool against human genes, 18 nM
Duration: about 2 to 2.5 days of knockdown, then 8 h LDL uptake
Conditions: DiI-labelled LDL at 30 µg/ml for 8 h, in lipoprotein-deficient serum medium
Detection: 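Fluorescent LDL signal imaged in cells, scaled to the plate median, robust z-score for each replicate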
Direction: robust z-score: higher = more LDL uptake after knockdown
Hit rule: 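a gene counts as active if at least two replicate z-scores exceed ±2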
Here is an unselected part of about 22,000 deposited reagents. About 1,510 of them (6.9%) were called active. 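Active includes knockdowns raising or lowering LDL uptake; positive z-scores mean more uptake, negative mean less.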

Gene	robust z-score, replicate 1	robust z-score, replicate 2	robust z-score, replicate 3	call
SLC5A9	0.537	1.22	0.926	inactive
GNG4	-0.88	-1.08	-0.972	inactive
ENOX2	-0.181	-0.504	-0.221	inactive
OR56A4	-2.77	-1.72	-1.36	inactive
LOC399707 (retired record)	0.141	0.544	0.00258	inactive
LOC400792 (retired record)	-0.584	-0.434	-0.637	inactive
PITX1	0.75	0.0796	1.63	inactive
BRINP3	-0.984	-1.21	-1.12	inactive
FENDRR	0.393	0.502	0.62	inactive
RHNO1	0.719	0.731	1.47	inactive
NDUFB2	1.37	1.05	0.746	inactive
SUSD4	-1.03	-1	1.24	inactive
WDR18	1.96	1.73	1.4	inactive
H2AP	-1.09	-0.149	-0.721	inactive
ZNF787	0.309	-0.21	-0.639	inactive
DHX34	0.102	-1.77	-0.0477	inactive
LOC440760 (retired record)	2.96	2.48	2.75	active
APMAP	2.67	1.97	0.695	active
KBTBD7	-0.11	0.226	0.965	inactive
ZNF516	1.11	0.981	0.911	inactive
MAPK6	-0.383	0.119	-0.0325	inactive
RFXAP	-1.18	-0.857	-0.828	inactive
CEACAM20	-0.993	0.702	-1.18	inactive
ARHGAP32	-0.562	0.00604	-0.344	inactive
CLIP1	-0.219	0.373	-0.00108	inactive
ADIG	-0.268	-0.631	-0.773	inactive
C1RL	-2.15	-1.27	-1.41	inactive
BRD7	1.36	0.106	1.67	inactive
ZFYVE21	-0.735	-0.437	-0.582	inactive
ECT2	-0.621	1.52	0.33	inactive
ATRN	-1.11	0.221	-0.653	inactive
EDNRB	-0.724	0.0652	-0.509	inactive
LOC392546 (retired record)	-0.489	-0.898	-0.883	inactive
LOC401169 (retired record)	0.589	0.149	0.524	inactive
TCTN3	-1.44	-0.97	-0.67	inactive
KRTAP3-1	-0.439	0.301	-0.0237	inactive
TPBG	0.134	1.21	0.896	inactive
ALKBH4	-0.622	-0.485	-0.3	inactive
LOC442057 (retired record)	-1.22	-0.459	-0.728	inactive
LOC400890 (retired record)	0.0849	-0.0272	-0.187	inactive
SNX18	-0.0649	-0.274	0.249	inactive
TBC1D15	-0.605	0.216	0.0171	inactive
PPIB	-0.92	-0.175	-0.73	inactive
ITIH6	2.79	0.772	2.59	active
BCL11B	-1.63	-1.47	-1.41	inactive
GATAD2B	1.36	1.86	2.18	inactive
LOC729417	0.748	0.638	0.75	inactive
MRPL12	-0.474	0.961	2.15	inactive
FMNL3	0.486	0.172	1.4	inactive
ARHGDIG	-1.23	-0.337	-1.01	inactive
LOC389318 (retired record)	0.0951	0.149	0.579	inactive
ZBED10P	-1.85	-1.37	-1.34	inactive
HNRNPDL	-0.473	-0.418	-0.908	inactive
KCNK17	2.22	1.67	1.78	inactive
LOC440763 (retired record)	-1.24	-1.48	-1.32	inactive

Reagents listed so far with an active call (3):
Gene	robust z-score, replicate 1	robust z-score, replicate 2	robust z-score, replicate 3	call
LOC440760 (retired record)	2.96	2.48	2.75	active
APMAP	2.67	1.97	0.695	active
ITIH6	2.79	0.772	2.59	active

Continued.
Gene	robust z-score, replicate 1	robust z-score, replicate 2	robust z-score, replicate 3	call
TMEM258	-0.661	0.27	-0.683	inactive
TYRO3	0.719	-0.169	0.89	inactive
PLEKHD1	1.53	0.819	0.827	inactive
SNCA	1.52	2.1	1.69	inactive
SULF2	2.69	1.86	2.62	active
PRODHLP	0.712	0.913	0.654	inactive
TPTE	-0.781	-0.241	-0.571	inactive
GPR101	-0.376	-0.0539	-0.262	inactive
MCCD1	-0.147	-1.4	-1.13	inactive
CFAP52	1.46	1.06	0.729	inactive
LOC442431 (retired record)	-0.192	-0.247	-0.295	inactive
MOGAT2	0.455	0.273	0.174	inactive
CRIP1	-0.634	-0.727	-0.163	inactive
COL14A1	0.085	-0.386	-0.125	inactive
LOC345537 (retired record)	-1.15	-1.39	-1.29	inactive
IFNA4	2.44	1.57	2.71	active
DUOX2	-0.572	-0.472	-0.362	inactive
LOC440835 (retired record)	0.409	0.247	0.488	inactive
RPL3L	-0.519	0.137	-0.712	inactive
G3BP1	0.935	2.65	1.35	inactive
NRP1	-0.00387	0.0317	0.137	inactive
STOML1	3.4	-0.103	1.41	inactive
LOC401442	0.436	0.337	0.689	inactive
PSMG3-AS1	0.0616	-1.59	-1	inactive
DOCK6	-1.33	-1.03	2.09	inactive
DZANK1	-0.782	0.274	1.38	inactive
LOC441059 (retired record)	0.528	0.386	0.0946	inactive
FAM201A	0.531	1.53	1.07	inactive
ZNF717	-1.38	-1.13	-1.46	inactive
LINC01343	0.98	0.954	0.655	inactive
AQP4	0.404	0.219	-0.376	inactive
ARRDC4	0.111	0.925	1.1	inactive
